Assay results published in the supplement of paper PMC3353916.

Tested on: Sindbis virus TE/5'2J-GFP
Test: percent infected (GFP+ in RFP+ ISG-expressing cells); higher = more infection (less antiviral activity)
Conditions: experiment: primary screen (single well)

For “MAPRSLLLLLSGALALTDTWAGSHSLRYFSTAVSRPGRGEPRYIAVEYVDDTQFLRFDSDAAIPRMEPREPWVEQEGPQYWEWTTGYAKANAQTDRVALRNLLRRYNQSEAGSHTLQGMNGCDMGPDGRLLRGYHQHAYDGKDYISLNEDLRSWTAADTVAQITQRFYEAEEYAEEFRTYLEGECLELLRRYLENGKETLQRADPPKAHVAHHPISDHEATLRCWALGFYPAEITLTWQRDGEEQTQDTELVETRPAGDGTFQKWAAVVVPPGEEQRYTCHVQHEGLPQPLILRWEQSPQPTIPIVGIVAGLVVLGAVVTGAVVAAVMWRKKSSDRNRGSYSQAAV [HLA-F]”, the percent infected (BHK/HA-Zeo (control)) was 96.4% and the percent infected (BHK/NZAP-Zeo (ZAP)) was 92.9%.
With “MAQAPADPGREGHLEQRILQVLTEAGSPVKLAQLVKECQAPKRELNQVLYRMKKELKVSLTSPATWCLGGTDPEGEGPAELALSSPAERPQQHAATIPETPGPQFSQQREEDIYRFLKDNGPQRALVIAQALGMRTAKDVNRDLYRMKSRHLLDMDEQSKAWTIYRPEDSGRRAKSASIIYQHNPINMICQNGPNSWISIANSEAIQIGHGNIITRQTVSREDGSAGPRHLPSMAPGDSSTWGTLVDPWGPQDIHMEQSILRRVQLGHSNEMRLHGVPSEGPAHIPPGSPPVSATAAGPEASFEARIPSPGTHPEGEAAQRIHMKSCFLEDATIGNSNKMSISPGVAGPGGVAGSGEGEPGEDAGRRPADTQSRSHFPRDIGQPITPSHSKLTPKLETMTLGNRSHKAAEGSHYVDEASHEGSWWGGGI [ZBP1]” the percent infected (BHK/HA-Zeo (control)) was 96.9% and the percent infected (BHK/NZAP-Zeo (ZAP)) was 96.8%.
Sequence “MAQASPPRPERVLGASSPEARPAQEALLLPTGVFQVAEKMEKRTCALCPKDVEYNVLYFAQSENIAAHENCLLYSSGLVECEDQDPLNPDRSFDVESVKKEIQRGRKLKCKFCHKRGATVGCDLKNCNKNYHFFCAKKDDAVPQSDGVRGIYKLLCQQHAQFPIIAQSAKFSGVKRKRGRKKPLSGNHVQPPETMKCNTFIRQVKEEHGRHTDATVKVPFLKKCKEAGLLNYLLEEILDKVHSIPEKLMDETTSESDYEEIGSALFDCRLFEDTFVNFQAAIEKKIHASQQRWQQLKEEIELLQDLKQTLCSFQENRDLMSSSTSISSLSY [PHF11]” has a percent infected (BHK/HA-Zeo (control)) of 93.8% and a percent infected (BHK/NZAP-Zeo (ZAP)) of 75%.
Work on “MAQEFVNCKIQPGKVVVFIKPTCPYCRRAQEILSQLPIKQGLLEFVDITATNHTNEIQDYLQQLTGARTVPRVFIGKDCIGGCSDLVSLQQSGELLTRLKQIGALQ [GLRX]” yielded a percent infected (BHK/HA-Zeo (control)) of 93.6% and a percent infected (BHK/NZAP-Zeo (ZAP)) of 88.4%.
Sequence “MAQRGGARRPRGDRERLGSRLRALRPGREPRQSEPPAQRGPPPSGRPPARSTASGHDRPTRGAAAGARRPRMKKKTRRRSTRSEELTRSEELTLSEEATWSEEATQSEEATQGEEMNRSQEVTRDEESTRSEEVTREEMAAAGLTVTVTHSNEKHDLHVTSQQGSSEPVVQDLAQVVEEVIGVPQSFQKLIFKGKSLKEMETPLSALGIQDGCRVMLIGKKNSPQEEVELKKLKHLEKSVEKIADQLEELNKELTGIQQGFLPKDLQAEALCKLDRRVKATIEQFMKILEEIDTLILPENFKDSRLKRKGLVKKVQAFLAECDTVEQNICQETERLQSTNFALAE [BAG1]” has a percent infected (BHK/HA-Zeo (control)) of 98.4% and a percent infected (BHK/NZAP-Zeo (ZAP)) of 89.6%.
Sequence “MARPDPSAPPSLLLLLLAQLVGRAAAASKAPVCQEITVPMCRGIGYNLTHMPNQFNHDTQDEAGLEVHQFWPLVEIQCSPDLRFFLCSMYTPICLPDYHKPLPPCRSVCERAKAGCSPLMRQYGFAWPERMSCDRLPVLGRDAEVLCMDYNRSEATTAPPRPFPAKPTLPGPPGAPASGGECPAGGPFVCKCREPFVPILKESHPLYNKVRTGQVPNCAVPCYQPSFSADERTFATFWIGLWSVLCFISTSTTVATFLIDMERFRYPERPIIFLSACYLCVSLGFLVRLVVGHASVACSREHNHIHYETTGPALCTIVFLLVYFFGMASSIWWVILSLTWFLAAGMKWGNEAIAGYAQYFHLAAWLIPSVKSITALALSSVDGDPVAGICYVGNQNLNSLRGFVLGPLVLYLLVGTLFLLAGFVSLFRIRSVIKQGGTKTDKLEKLMIRIGIFTLLYTVPASIVVACYLYEQHYRESWEAALTCACPGHDTGQPRAKPEYWVLMLKYFMCLVVGITSGVWIWSGKTVESWRRFTSRCCCRPRRGHKSGGAMAAGDYPEASAALTGRTGPPGPAATYHKQVSLSHV [C2orf31]” has a percent infected (BHK/HA-Zeo (control)) of 92.4%.
With “MASEIHMTGPMCLIENTNGRLMANPEALKILSAITQPMVVVAIVGLYRTGKSYLMNKLAGKKKGFSLGSTVQSHTKGIWMWCVPHPKKPGHILVLLDTEGLGDVEKGDNQNDSWIFALAVLLSSTFVYNSIGTINQQAMDQLYYVTELTHRIRSKSSPDENENEVEDSADFVSFFPDFVWTLRDFSLDLEADGQPLTPDEYLTYSLKLKKGTSQKDETFNLPRLCIRKFFPKKKCFVFDRPVHRRKLAQLEKLQDEELDPEFVQQVADFCSYIFSNSKTKTLSGGIQVNGPRLESLVLTYVNAISSGDLPCMENAVLALAQIENSAAVQKAIAHYEQQMGQKVQLPTETLQELLDLHRDSEREAIEVFIRSSFKDVDHLFQKELAAQLEKKRDDFCKQNQEASSDRCSALLQVIFSPLEEEVKAGIYSKPGGYRLFVQKLQDLKKKYYEEPRKGIQAEEILQTYLKSKESMTDAILQTDQTLTEKEKEIEVERVKAESAQASAKMLQEMQRKNEQMMEQKERSYQEHLKQLTEKMENDRVQLLKEQERTLALKLQEQEQLLKEGFQKESRIMKNEIQDLQTKMRRRKACTIS [GBP1]” the percent infected (BHK/HA-Zeo (control)) was 95.1% and the percent infected (BHK/NZAP-Zeo (ZAP)) was 89.2%.
Work on “MASGRARCTRKLRNWVVEQVESGQFPGVCWDDTAKTMFRIPWKHAGKQDFREDQDAAFFKAWAIFKGKYKEGDTGGPAVWKTRLRCALNKSSEFKEVPERGRMDVAEPYKVYQLLPPGIVSGQPGTQKVPSKRQHSSVSSERKEEEDAMQNCTLSPSVLQDSLNNEEEGASGGAVHSDIGSSSSSSSPEPQEVTDTTEAPFQGDQRSLEFLLPPEPDYSLLLTFIYNGRVVGEAQVQSLDCRLVAEPSGSESSMEQVLFPKPGPLEPTQRLLSQLERGILVASNPRGLFVQRLCPIPISWNAPQAPPGPGPHLLPSNECVELFRTAYFCRDLVRYFQGLGPPPKFQVTLNFWEESHGSSHTPQNLITVKMEQAFARYLLEQTPEQQAAILSLV [IRF9]” yielded a percent infected (BHK/HA-Zeo (control)) of 82.8% and a percent infected (BHK/NZAP-Zeo (ZAP)) of 74.3%.
Work on “MASPHQEPKPGDLIEIFRLGYEHWALYIGDGYVIHLAPPSEYPGAGSSSVFSVLSNSAEVKRERLEDVVGGCCYRVNNSLDHEYQPRPVEVIISSAKEMVGQKMKYSIVSRNCEHFVTQLRYGKSRCKQVEKAKVEVGVATALGILVVAGCSFAIRRYQKKATA [RARRES3]” yielded a percent infected (BHK/HA-Zeo (control)) of 98.6% and a percent infected (BHK/NZAP-Zeo (ZAP)) of 97.2%.
“MASPRASRWPPPLLLLLLPLLLLPPAAPGTRDPPPSPARRALSLAPLAGAGLELQLERRPEREPPPTPPRERRGPATPGPSYRAPEPGAATQRGPSGRAPRGGSADAAWKHWPESNTEAHVENITFYQNQEDFSTVSSKEGVMVQTSGKSHAASDAPENLTLLAETADARGRSGSSSRTNFTILPVGYSLEIATALTSQSGNLASESLHLPSSSSEFDERIAAFQTKSGTASEMGTERAMGLSEEWTVHSQEATTSAWSPSFLPALEMGELTTPSRKRNSSGPDLSWLHFYRTAASSPLLDLSSSSESTEKLNNSTGLQSSSVSQTKTMHVATVFTDGGPRTLRSLTVSLGPVSKTEGFPKDSRIATTSSSVLLSPSAVESRRNSRVTGNPGDEEFIEPSTENEFGLTSLRWQNDSPTFGEHQLASSSEVQNGSPMSQTETVSRSVAPMRGGEITAHWLLTNSTTSADVTGSSASYPEGVNASVLTQFSDSTVQSGGSHTALGDRSYSESSSTSSSESLNSSAPRGERSIAGISYGQVRGTAIEQRTSSDHTDHTYLSSTFTKGERALLSITDNSSSSDIVESSTSYIKISNSSHSEYSSFFHAQTERSNISSYDGEYAQPSTESPVLHTSNLPSYTPTINMPNTSVVLDTDAEFVSDSSSSSSSSSSSSSSGPPLPLPSVSQSHHLFSSILPSTRASVHLLKSTSDASTPWSSSPSPLPVSLTTSTSAPLSVSQTTLPQSSSTPVLPRARETPVTSFQTSTMTSFMTMLHSSQTADLKSQSTPHQEKVITESKSPSLVSLPTESTKAVTTNSPLPPSLTESSTEQTLPATSTNLAQMSPTFTTTILKTSQPLMTTPGTLSSTASLVTGPIAVQTTAGKQLSLTHPEILVPQISTEGGISTERNRVIVDATTGLIPLTSVPTSAKEMTTKLGVTAEYSPASRSLGTSPSPQTTVVSTAEDLAPKSATFAVQSSTQSPTTVSSSASVNSCAVNPCLHNGECVADNTSRGYHCRCPPSWQGDDCSVDVNECLSNPCPSTAMCNNTQGSFICKCPVGYQLEKGICNLVRTFVTEFKLKRTFLNTTVEKHSDLQEVENEITKTLNMCFSALPSYIRSTVHASRESNAVVISLQTTFSLASNVTLFDLADRMQKCVNSCKSSAEVCQLLGSQRRIFRAGSLCKRKSPECDKDTSICTDLDGVALCQCKSGYFQFNKMDHSCRACEDGYRLENETCMSCPFGLGGLNCGNPYQLITVVIAAAGGGLLLILGIALIVTCCRKNKNDISKLIFKSGDFQMSPYAEYPKNPRSQEWGREAIEMHENGSTKNLLQMTDVYYSPTSVRNPELERNGLYPAYTGLPGSRHSCIFPGQYNPSFISDESRRRDYF [HEG1]” gave a percent infected (BHK/HA-Zeo (control)) of 98.5% and a percent infected (BHK/NZAP-Zeo (ZAP)) of 96%.
Work on “MASTTSTKKMMEEATCSICLSLMTNPVSINCGHSYCHLCITDFFKNPSQKQLRQETFCCPQCRAPFHMDSLRPNKQLGSLIEALKETDQEMSCEEHGEQFHLFCEDEGQLICWRCERAPQHKGHTTALVEDVCQGYKEKLQKAVTKLKQLEDRCTEQKLSTAMRITKWKEKVQIQRQKIRSDFKNLQCFLHEEEKSYLWRLEKEEQQTLSRLRDYEAGLGLKSNELKSHILELEEKCQGSAQKLLQNVNDTLSRSWAVKLETSEAVSLELHTMCNVSKLYFDVKKMLRSHQVSVTLDPDTAHHELILSEDRRQVTRGYTQENQDTSSRRFTAFPCVLGCEGFTSGRRYFEVDVGEGTGWDLGVCMENVQRGTGMKQEPQSGFWTLRLCKKKGYVALTSPPTSLHLHEQPLLVGIFLDYEAGVVSFYNGNTGCHIFTFPKASFSDTLRPYFQVYQYSPLFLPPPGD [TRIM38]” yielded a percent infected (BHK/HA-Zeo (control)) of 98.4% and a percent infected (BHK/NZAP-Zeo (ZAP)) of 96.4%.
“MASVAVDPQPSVVTRVVNLPLVSSTYDLMSSAYLSTKDQYPYLKSVCEMAENGVKTITSVAMTSALPIIQKLEPQIAVANTYACKGLDRIEERLPILNQPSTQIVANAKGAVTGAKDAVTTTVTGAKDSVASTITGVMDKTKGAVTGSVEKTKSVVSGSINTVLGSRMMQLVSSGVENALTKSELLVEQYLPLTEEELEKEAKKVEGFDLVQKPSYYVRLGSLSTKLHSRAYQQALSRVKEAKQKSQQTISQLHSTVHLIEFARKNVYSANQKIQDAQDKLYLSWVEWKRSIGYDDTDESHCAEHIESRTLAIARNLTQQLQTTCHTLLSNIQGVPQNIQDQAKHMGVMAGDIYSVFRNAASFKEVSDSLLTSSKGQLQKMKESLDDVMDYLVNNTPLNWLVGPFYPQLTESQNAQDQGAEMDKSSQETQRSEHKTH [ADFP]” showed a percent infected (BHK/HA-Zeo (control)) of 95.7% and a percent infected (BHK/NZAP-Zeo (ZAP)) of 82%.
For “MASVIPASNRSMRSDRNTYVGKRFVHVKNPYLDLMDEDILYHLDLGTKTHNLPAMFGDVKFVCVGGSPNRMKAFALFMHKELGFEEAEEDIKDICAGTDRYCMYKTGPVLAISHGMGIPSISIMLHELIKLLHHARCCDVTIIRIGTSGGIGIAPGTVVITDIAVDSFFKPRFEQVILDNIVTRSTELDKELSEELFNCSKEIPNFPTLVGHTMCTYDFYEGQGRLDGALCSFSREKKLDYLKRAFKAGVRNIEMESTVFAAMCGLCGLKAAVVCVTLLDRLDCDQINLPHDVLVEYQQRPQLLISNFIRRRLGLCD [UPP2]”, the percent infected (BHK/HA-Zeo (control)) was 92.5% and the percent infected (BHK/NZAP-Zeo (ZAP)) was 70.6%.

This is a noisy data set.
